Test results from article PMC7926980, “The Antiproliferative and Apoptotic Effect of a Novel Synthesized S-Triazine Dipeptide Series, and Toxicity Screening in Zebrafish Embryos” (Molecules, 2021).

Tested on: MDA-MB-231 cells
Assay: MTT cell viability assay, MDA-MB-231
Type: cell-based
Conditions: Homo sapiens, 72 h treatment
Experimental: The antiproliferative activity of the synthesized compounds was evaluated by the 3-(4,5-dimethylthiazol-2-yl)-2,5-diphenyl tetrazolium bromide (MTT) cell viability assay. Two types of breast cancer cell lines—namely MCF-7, which has estrogen and progesterone receptors, and MDA-MB-231, which is triple negative—were used, in addition to a colon cancer cell line (HCT-116). […] Overall, the morpholine-containing compounds tended to show greater activity than the piperidine-containing compounds in the MCF-7 cell line. In this regard, it is important to highlight compound 3a, the activity of which was below µM.
The target products 3a–o were evaluated for their antiproliferative activity using the MTT viability assay of the MCF-7, MDA-MB-231 and HCT-116 cell lines (in triplicate) on at least three independent occasions for the determination of the reported mean values. […]
In order to calculate the relative IC50 values, the antiproliferative effect of compounds 3a–o was tested in three cancer cell lines (MCF-7, MDA-MB-231, HCT-116) and normal epithelial embryonic kidney cells (HEK-293) using the MTT viability assay. […] The absorbance was detected with a microplate reader at 570 nm. The results were expressed as a percentage of viability relative to the vehicle control (100%). […]

CC/C(=C(\c1ccccc1)c1ccc(OCCN(C)C)cc1)c1ccccc1 [Tamoxifen, reference compound]
IC50: 15.01 ± 0.12 µM
